The text below walks through data of patent US5264432A, “5-(1-aminoacyl)-5,10-dihydro-11H-dibenzo[b,e](1,4)diazepin-11-ones” (Arzneimittelwerk Dresden G.m.b.H, priority 1989, dated 1993).

The data set relates to CaCl2 arrhythmia of the rat. The data set is described as follows: CaCl2 arrhythmia of the rat (antifibrillatory effect). The note with it: ratio LD50 iv./ED50 iv. How it is done: The data is analyzed by the Probit regression analysis with a confidence interval of p=0.05 (values in parentheses).
Q is the ratio of LD50 iv. /ED50 iv. to determine therapeutic breadth range.

Molecules are shown by their SMILES.

Take `CCN(CC)CC(=O)Nc1c(C)cccc1C` [Lidocaine, reference compound]: the “Q = LD50/ED50 (therapeutic breadth)” value was determined as 5.8.
